Results are given in words; binding and its absence hold for the method and conditions named. Binding seen in cells or lysates may run through a third protein. Here binding means that the protein was enriched with, or labelled near, the bait; the list need not be complete. Sequences can lack the tags named with a protein.
Target: T1, FLAG-SREBF1(N), N-terminus of mouse SREBF1, expressed in 3T3-L1–TetON-FLAG-Srebf1(N) adipocytes (mouse) (UniProt Q9WTN3)
T1 sequence: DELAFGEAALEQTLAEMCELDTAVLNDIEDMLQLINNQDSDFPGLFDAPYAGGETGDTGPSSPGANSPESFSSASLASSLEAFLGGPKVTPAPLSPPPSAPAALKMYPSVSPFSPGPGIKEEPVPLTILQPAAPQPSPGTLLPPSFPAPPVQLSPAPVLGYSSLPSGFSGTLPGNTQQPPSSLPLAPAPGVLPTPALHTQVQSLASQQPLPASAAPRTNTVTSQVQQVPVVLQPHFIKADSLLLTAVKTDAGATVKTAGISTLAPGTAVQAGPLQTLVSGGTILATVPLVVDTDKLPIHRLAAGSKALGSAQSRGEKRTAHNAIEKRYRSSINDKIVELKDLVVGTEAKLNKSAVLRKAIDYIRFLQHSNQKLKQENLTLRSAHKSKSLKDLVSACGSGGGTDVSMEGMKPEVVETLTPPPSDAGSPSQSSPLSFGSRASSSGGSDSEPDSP
Assay: affinity purification with mass spectrometry; FLAG-tagged bait immunoprecipitated with anti-FLAG M2 Affinity Gel from dialysed nuclear extracts (150 mM KCl, 0.05% NP40) of differentiated 3T3-L1 TetON cells treated with 10 μg/mL doxycycline; eluted with FLAG peptide; LC-MS/MS

- binding: binds
B1: ARMC5, endogenous in 3T3-L1 adipocytes (protein, UniProt Q5EBP3 1-926)
chain: MAAARPALTDSLSFCLAQLTAAAGEGPGGGKDPATNETPLGRALLALRTRHIKAAEGIERFRARGGLRPLLALLRRTAAAGPAPSQAASGSAPSSVASAGSTPGHAPAAESLLTPSLPMRLRKTLDLALSILANCCTEGACRAEVRRLGGILPLVTILQCVKTDSIQNRTARALGNLAMEPESCRDIHSAGAVPFLVESLTACQDSQCLQSIVRALRNLADSPQHRLALAQQGAVRPLAELLATAPDPALTAALVRALLELSRGCSRACAEQLSLGGALGPLVSLASHPKRAIREAAILILANLCAQGLVRPALGNAGGVEVLLGELRRRRSPGGSSSATQQPLVRAVCLLCREAINRARLRDAGGLELLMGLLQDPGASAWHPRVVAALVGFLYDTGALGKLQALGLVPLLARQLCGEAGEEEEEGIEAASWDFPEERTSGQAEGGSFRSLRLWLISEGYAAGPGDISPDWSPERCPMPEPSESVSPTPGQTSMSTPRTLRKPGRIPAATPEEPWGQEGPALLLLSRFSQAPDPSGALVTGPALCGLLAYVTGAPGPPNPRALRILARLTCNPACLEAFVRTYGAALLRAWLVLGVSPDDWPVPHARPVHRSQHRELGEMLLQNLTVQAESPFGVGALTHLLLSGSPEDRVACALTLPFICRKPTLWRRLLLDQGGLRLLLTALTQPAPHPLFLFFAADSLSCLQGLVSPTASPVPLPALPLELDSPPPCLYEPLLGPAPAPAPDLHFVLDSGLQLPAQRAASAAASPFFRALLSGSFAEAQMDLVPLRGLSPGAAWPVLHHLHGCRGCGAALGPVPPPGQPLLGSKAEEALEAAGRFLLPALEEELEEAVGRIHLSPRGGPESVGEVFRLGRPRLAAHCARWTLEPGQCPRKRALALTGLVEAAGEEAGPLTEALLAVVMGIES

— publication PMC9462479
